Data taken from PubChem BioAssay AID504847 (National Center for Advancing Translational Sciences (NCATS), 2011).
Several values for one entry are separate records, joined by “and”; a condition that tells them apart may be missing. Identical values can stand only once. Hit rate of the full screen: of about 400,000 compounds, about 3,700 (0.93%) were called active. Inconclusive means that the source gave no clear call. Such entries were picked first, then a sample of the others. The call rests on the fitted dose curve; in most records, active means well fitted inhibition curve with a large enough effect; inconclusive means small, poorly fitted or top-dose-only effect, or another doubt; inactive means no such curve, though single readings can be large or run the other way. Where the call is inconclusive, the potency comes from a doubtful curve fit.

The chains behind the UniProt entries cited, without tags or fusion partners. Where a name states a change or a piece, a line headed by the entry shows the natural chain unless it says otherwise.
UniProt P11473: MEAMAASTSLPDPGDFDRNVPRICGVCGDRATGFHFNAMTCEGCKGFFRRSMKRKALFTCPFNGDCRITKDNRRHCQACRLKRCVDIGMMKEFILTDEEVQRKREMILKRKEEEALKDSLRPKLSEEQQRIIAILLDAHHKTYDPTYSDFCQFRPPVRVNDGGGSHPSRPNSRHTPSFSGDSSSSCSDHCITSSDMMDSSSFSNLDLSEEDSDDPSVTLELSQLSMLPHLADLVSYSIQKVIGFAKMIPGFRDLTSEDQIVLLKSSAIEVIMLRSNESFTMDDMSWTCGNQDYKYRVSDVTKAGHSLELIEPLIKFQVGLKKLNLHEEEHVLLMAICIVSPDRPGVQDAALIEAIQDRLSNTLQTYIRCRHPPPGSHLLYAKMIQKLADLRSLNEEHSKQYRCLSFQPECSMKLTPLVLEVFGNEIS

target: Vitamin D3 receptor (Homo sapiens) (UniProt P11473); experiment: Inhibitors of the vitamin D receptor (VDR): qHTS; conditions: VDR-SRC2-3 peptide fluorescence polarization, 2 h; max response, negative = inhibition: active compounds read low
In short: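 VDR–SRC2-3 interaction, FP format. Cmpds 23 nl via pintool, brief spin, 2 h ambient incubation.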
On the % scale 0 is the no-effect control and ±100 the full control effect; potency means the concentration at half of the fitted maximal effect.

SMILES | Potency | max response, negative = inhibition
Nc1nnnn1/N=C/C(Br)=C/c1ccccc1 | inconclusive: 89.1 µM [inhibitor, partial curve, poor fit] | 
COc1ccc(C2CC(c3ccco3)n3ncnc3N2)cc1 (stereo not given) | inconclusive: 100 µM [inhibitor, single point] | 
O=C(CSc1c2c(nc3ccccc13)CCCC2)NCc1ccco1 |  | inactive: 1.52%
N#CC1=C(N)NC(SCc2ccccc2)=C(C#N)C12CCCC2 | inconclusive: 56.2 µM [inhibitor, partial curve, poor fit] | 
O=c1cc(O)n(C2CCCCCC2)c(=O)[nH]1 | inconclusive: 50.1 µM [inhibitor, partial curve, poor fit] | 
O=C(Nc1cccc(F)c1)N1CC[C@@]2(CCCNC2)C1 | inconclusive: 89.1 µM [inhibitor, single point] | 
O=c1ccc2c(-c3ccccc3)c3ccc(O)cc3oc-2c1 | inconclusive: 89.1 µM [inhibitor, single point] | 
Cc1cc(C)c(S(C)(=O)=O)c(Oc2ccc(F)cc2)n1 |  | inactive: -23.1%
Cc1ccccc1OCCSc1nc2ccc(NC(=O)c3cccs3)cc2s1 |  | inactive: 7.14%
O=C1NN(c2ccccc2)C(=O)/C1=C/c1ccc(Sc2cccc3ccccc23)o1 | inconclusive: 56.2 µM [inhibitor, partial curve, poor fit] | 
O=C(NNC(=S)Nc1ccc(Cl)c(Cl)c1)c1ccccn1 | inconclusive: 39.8 µM [inhibitor, partial curve, poor fit] | 
O=C(O)c1ccc(-c2ccc(/C=c3/sc4nc5ccccc5n4c3=O)o2)cc1Cl | inconclusive: 0.794 µM [inhibitor, full curve, poor fit] | 
O=C1Nc2ccc(F)cc2C12Nc1ccccc1-c1nnc(SCc3ccccc3)nc1O2 (stereo not given) | inconclusive: 17.8 µM [inhibitor, partial curve, poor fit] | 
O=C(C1=C(O)C(=O)N(Cc2ccco2)C1c1ccccc1F)c1cccs1 (stereo not given) | inconclusive: 89.1 µM [inhibitor, single point] | 
Clc1ccccc1-c1nc(N2CCNCC2)c2ccccc2n1 | inconclusive: 50.1 µM [inhibitor, partial curve] | 
CC1(C)CC(=O)/C(=C(\O)Cc2ccccc2)C(=NCCCCCC(=O)O)C1 | inconclusive: 89.1 µM [inhibitor, single point] | 
COCCCN1C(=O)C(=O)/C(=C(/O)c2ccc(OC)cc2)C12C(=O)N(C)c1ccccc12 (stereo not given) | inconclusive: 1.12 µM [inhibitor, full curve, poor fit] | 
Cc1c(Cl)cccc1NC(=S)N(Cc1ccco1)C(C)c1ccccn1 (stereo not given) | inconclusive: 44.7 µM [inhibitor, full curve, poor fit] | 
Cc1ccc(CNC(=O)CSc2nc3ccsc3c(=O)n2-c2ccc(C(=O)O)cc2)cc1 |  | inactive: 10.7%
O=C(NC(=S)Nc1ccccc1N1CCOCC1)c1cccs1 |  | inactive: 3.45%

SMILES | Potency | max response, negative = inhibition
CC(=O)c1ccc(-c2ccc([C@H]3[C@H]4C=CC[C@@H](C)[C@@H]4C(=O)N3Cc3ccccc3)c(F)c2)cc1 |  | inactive: -2.31%
CC(C)COC(=O)Nc1nnc(Cc2ccccc2)s1 | inconclusive: 89.1 µM [inhibitor, single point] | 
CC(=O)Nc1ccc(C(=O)OCc2ccccc2Cl)cc1 | inconclusive: 56.2 µM [inhibitor, partial curve, poor fit] | 
COc1ccccc1/C=C/C(=O)NC(=S)NC(C)C | inconclusive: 10 µM [inhibitor, partial curve, poor fit] | 
Cc1ccc(NC(=S)/N=C(\N)Nc2nc(C)c3cc(C)c(C)cc3n2)cc1C | inconclusive: 22.4 µM [inhibitor, partial curve, poor fit] | 
COc1cc(/C=C/CN2CCN(Cc3ccc(C)o3)C(CCO)C2)ccc1O (stereo not given) | inconclusive: 89.1 µM [inhibitor, single point] | 
O=C(O)Cn1c2c(c3ccccc31)CSc1ccc(Cl)cc1-2 | inconclusive: 89.1 µM [inhibitor, partial curve, poor fit] | 
O=C(O)c1ccc(S(=O)(=O)N(CCc2ccccc2)Cc2ccc(Cl)cc2)cc1 | inconclusive: 63.1 µM [inhibitor, partial curve, poor fit] | 
CCOC(=O)CSc1[nH]c2cc(OC)ccc2c1[N+](=O)[O-] | inconclusive: 100 µM [inhibitor, single point] | 
COc1ccc(-c2coc3cc(OC(C)=O)ccc3c2=S)cc1 | inconclusive: 20 µM [inhibitor, full curve, poor fit] | 
CCOc1ccc(NC(=O)CSc2oc(-c3cccs3)nc2S(=O)(=O)c2ccc(Cl)cc2)cc1 |  | inactive: -0.632%
COc1ccccc1Nc1nc(-c2sc(NC(=O)CC(C)C)nc2C)cs1 | inconclusive: 79.4 µM [inhibitor, single point] | 
Cc1ccc(NC(=O)COC(=O)C2CC(=O)N(Cc3ccccc3)C2)cc1S(=O)(=O)N(C)C (stereo not given) |  | inactive: -0.367%
COc1ccc(CN(C(=O)Nc2ccccc2)c2ccccn2)cc1OC |  | inactive: -0.401%
CCOc1cc(C2CC(=O)N3CN(C4CCCCC4)CSC3=C2C#N)ccc1O (stereo not given) | inconclusive: 56.2 µM [inhibitor, partial curve, poor fit] and inconclusive: 79.4 µM [inhibitor, partial curve, poor fit] | 
CCN1CC=C2C(C#N)=C(N)C(C#N)(C#N)C(CCc3ccccc3)C2C1 (stereo not given) | inconclusive: 31.6 µM [inhibitor, full curve, poor fit] | 
O=C(O)c1cccc(-n2cccc2/C=C/[N+](=O)[O-])c1 | inconclusive: 89.1 µM [inhibitor, single point] | 
CCOc1ccc2c(c1)nc(SCC(=O)c1ccc(Br)s1)n2C | active: 89.1 µM | 
O=C(CSc1nnc(CNc2ccc(F)cc2)o1)OC1CCCCC1 | inconclusive: 89.1 µM [inhibitor, partial curve, poor fit] | 
O=C(O)c1ccc(Nc2nc(-c3ccccc3)nc3ccccc23)cc1 | active: 79.4 µM | 
